Data as given in article PMC11483127.
Read-outs that look alike come from different tables or passages of the source. These are yes or no findings as the source states them, for the method shown. Binding seen in cells or lysates may run through a third protein. These calls come from enrichment with a bait or labelling near it, and not all partners need be listed.

The chains behind the UniProt entries cited, without tags or fusion partners.
UniProt C6KT82: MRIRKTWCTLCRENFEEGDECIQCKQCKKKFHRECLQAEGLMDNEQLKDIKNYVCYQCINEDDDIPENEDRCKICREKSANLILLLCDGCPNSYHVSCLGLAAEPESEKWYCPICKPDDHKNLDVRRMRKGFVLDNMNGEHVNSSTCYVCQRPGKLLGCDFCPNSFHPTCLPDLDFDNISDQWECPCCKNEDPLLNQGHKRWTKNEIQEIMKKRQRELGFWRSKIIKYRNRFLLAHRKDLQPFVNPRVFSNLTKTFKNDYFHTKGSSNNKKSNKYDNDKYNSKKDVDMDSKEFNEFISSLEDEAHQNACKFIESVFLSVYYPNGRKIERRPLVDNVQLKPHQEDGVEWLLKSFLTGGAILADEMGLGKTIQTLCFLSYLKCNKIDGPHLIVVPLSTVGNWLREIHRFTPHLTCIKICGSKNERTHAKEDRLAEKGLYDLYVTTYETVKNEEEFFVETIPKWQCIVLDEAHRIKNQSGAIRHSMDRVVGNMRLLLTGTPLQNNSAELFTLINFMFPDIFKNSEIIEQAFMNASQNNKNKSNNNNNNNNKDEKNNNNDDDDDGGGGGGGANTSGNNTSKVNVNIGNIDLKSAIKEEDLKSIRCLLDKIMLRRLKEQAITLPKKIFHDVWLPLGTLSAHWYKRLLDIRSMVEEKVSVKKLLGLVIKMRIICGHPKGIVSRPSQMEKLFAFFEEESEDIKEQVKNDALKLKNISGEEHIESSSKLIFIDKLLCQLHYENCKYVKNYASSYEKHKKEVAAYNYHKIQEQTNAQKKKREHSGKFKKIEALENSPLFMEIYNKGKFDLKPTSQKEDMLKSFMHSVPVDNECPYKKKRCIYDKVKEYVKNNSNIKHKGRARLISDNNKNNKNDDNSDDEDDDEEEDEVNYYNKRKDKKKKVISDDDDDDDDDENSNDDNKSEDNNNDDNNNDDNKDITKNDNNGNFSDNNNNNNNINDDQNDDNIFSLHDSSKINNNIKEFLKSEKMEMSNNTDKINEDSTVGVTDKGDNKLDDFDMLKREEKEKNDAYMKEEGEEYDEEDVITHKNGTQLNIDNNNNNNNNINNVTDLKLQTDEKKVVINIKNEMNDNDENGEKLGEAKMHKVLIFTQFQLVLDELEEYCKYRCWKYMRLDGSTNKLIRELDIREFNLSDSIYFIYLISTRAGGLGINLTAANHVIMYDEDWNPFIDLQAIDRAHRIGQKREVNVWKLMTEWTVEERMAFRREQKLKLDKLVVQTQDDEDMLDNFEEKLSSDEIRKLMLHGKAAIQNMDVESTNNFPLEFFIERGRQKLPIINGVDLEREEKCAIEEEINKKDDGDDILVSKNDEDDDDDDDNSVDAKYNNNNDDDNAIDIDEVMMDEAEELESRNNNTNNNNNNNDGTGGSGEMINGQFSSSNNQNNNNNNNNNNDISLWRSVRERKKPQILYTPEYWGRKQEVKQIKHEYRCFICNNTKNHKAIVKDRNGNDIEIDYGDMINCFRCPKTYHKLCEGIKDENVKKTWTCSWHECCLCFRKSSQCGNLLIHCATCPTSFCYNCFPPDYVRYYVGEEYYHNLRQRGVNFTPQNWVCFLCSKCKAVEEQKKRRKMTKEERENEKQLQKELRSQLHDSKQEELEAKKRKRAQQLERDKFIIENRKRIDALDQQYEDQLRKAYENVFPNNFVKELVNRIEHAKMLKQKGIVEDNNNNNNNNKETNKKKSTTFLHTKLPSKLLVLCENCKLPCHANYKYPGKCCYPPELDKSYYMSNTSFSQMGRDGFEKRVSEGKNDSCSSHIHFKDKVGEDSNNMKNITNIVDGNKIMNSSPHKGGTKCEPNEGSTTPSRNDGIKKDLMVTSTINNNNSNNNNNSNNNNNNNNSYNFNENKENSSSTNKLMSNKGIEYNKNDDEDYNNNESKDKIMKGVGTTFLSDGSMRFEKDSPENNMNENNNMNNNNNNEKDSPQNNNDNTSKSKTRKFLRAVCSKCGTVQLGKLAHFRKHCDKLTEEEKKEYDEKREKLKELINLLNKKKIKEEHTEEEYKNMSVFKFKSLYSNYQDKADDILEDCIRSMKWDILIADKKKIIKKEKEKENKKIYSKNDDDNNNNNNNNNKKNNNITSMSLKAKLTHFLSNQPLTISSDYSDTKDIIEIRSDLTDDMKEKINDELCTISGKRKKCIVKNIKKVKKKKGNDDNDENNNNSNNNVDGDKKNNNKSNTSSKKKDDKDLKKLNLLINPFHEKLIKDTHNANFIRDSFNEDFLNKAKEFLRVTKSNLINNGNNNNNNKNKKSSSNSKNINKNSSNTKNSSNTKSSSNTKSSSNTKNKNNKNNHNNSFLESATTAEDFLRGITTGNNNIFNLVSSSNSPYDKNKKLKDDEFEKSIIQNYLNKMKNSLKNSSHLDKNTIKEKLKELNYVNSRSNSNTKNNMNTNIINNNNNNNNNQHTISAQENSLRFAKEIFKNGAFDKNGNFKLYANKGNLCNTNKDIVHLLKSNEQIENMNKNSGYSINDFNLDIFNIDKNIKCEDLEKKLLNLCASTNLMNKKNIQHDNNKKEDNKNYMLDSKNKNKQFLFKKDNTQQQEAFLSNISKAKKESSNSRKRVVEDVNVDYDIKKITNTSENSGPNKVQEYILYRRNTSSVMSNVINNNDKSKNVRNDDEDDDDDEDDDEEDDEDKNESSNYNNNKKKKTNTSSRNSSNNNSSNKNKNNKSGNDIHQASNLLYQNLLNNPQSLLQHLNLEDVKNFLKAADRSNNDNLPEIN
UniProt Q8IIS4: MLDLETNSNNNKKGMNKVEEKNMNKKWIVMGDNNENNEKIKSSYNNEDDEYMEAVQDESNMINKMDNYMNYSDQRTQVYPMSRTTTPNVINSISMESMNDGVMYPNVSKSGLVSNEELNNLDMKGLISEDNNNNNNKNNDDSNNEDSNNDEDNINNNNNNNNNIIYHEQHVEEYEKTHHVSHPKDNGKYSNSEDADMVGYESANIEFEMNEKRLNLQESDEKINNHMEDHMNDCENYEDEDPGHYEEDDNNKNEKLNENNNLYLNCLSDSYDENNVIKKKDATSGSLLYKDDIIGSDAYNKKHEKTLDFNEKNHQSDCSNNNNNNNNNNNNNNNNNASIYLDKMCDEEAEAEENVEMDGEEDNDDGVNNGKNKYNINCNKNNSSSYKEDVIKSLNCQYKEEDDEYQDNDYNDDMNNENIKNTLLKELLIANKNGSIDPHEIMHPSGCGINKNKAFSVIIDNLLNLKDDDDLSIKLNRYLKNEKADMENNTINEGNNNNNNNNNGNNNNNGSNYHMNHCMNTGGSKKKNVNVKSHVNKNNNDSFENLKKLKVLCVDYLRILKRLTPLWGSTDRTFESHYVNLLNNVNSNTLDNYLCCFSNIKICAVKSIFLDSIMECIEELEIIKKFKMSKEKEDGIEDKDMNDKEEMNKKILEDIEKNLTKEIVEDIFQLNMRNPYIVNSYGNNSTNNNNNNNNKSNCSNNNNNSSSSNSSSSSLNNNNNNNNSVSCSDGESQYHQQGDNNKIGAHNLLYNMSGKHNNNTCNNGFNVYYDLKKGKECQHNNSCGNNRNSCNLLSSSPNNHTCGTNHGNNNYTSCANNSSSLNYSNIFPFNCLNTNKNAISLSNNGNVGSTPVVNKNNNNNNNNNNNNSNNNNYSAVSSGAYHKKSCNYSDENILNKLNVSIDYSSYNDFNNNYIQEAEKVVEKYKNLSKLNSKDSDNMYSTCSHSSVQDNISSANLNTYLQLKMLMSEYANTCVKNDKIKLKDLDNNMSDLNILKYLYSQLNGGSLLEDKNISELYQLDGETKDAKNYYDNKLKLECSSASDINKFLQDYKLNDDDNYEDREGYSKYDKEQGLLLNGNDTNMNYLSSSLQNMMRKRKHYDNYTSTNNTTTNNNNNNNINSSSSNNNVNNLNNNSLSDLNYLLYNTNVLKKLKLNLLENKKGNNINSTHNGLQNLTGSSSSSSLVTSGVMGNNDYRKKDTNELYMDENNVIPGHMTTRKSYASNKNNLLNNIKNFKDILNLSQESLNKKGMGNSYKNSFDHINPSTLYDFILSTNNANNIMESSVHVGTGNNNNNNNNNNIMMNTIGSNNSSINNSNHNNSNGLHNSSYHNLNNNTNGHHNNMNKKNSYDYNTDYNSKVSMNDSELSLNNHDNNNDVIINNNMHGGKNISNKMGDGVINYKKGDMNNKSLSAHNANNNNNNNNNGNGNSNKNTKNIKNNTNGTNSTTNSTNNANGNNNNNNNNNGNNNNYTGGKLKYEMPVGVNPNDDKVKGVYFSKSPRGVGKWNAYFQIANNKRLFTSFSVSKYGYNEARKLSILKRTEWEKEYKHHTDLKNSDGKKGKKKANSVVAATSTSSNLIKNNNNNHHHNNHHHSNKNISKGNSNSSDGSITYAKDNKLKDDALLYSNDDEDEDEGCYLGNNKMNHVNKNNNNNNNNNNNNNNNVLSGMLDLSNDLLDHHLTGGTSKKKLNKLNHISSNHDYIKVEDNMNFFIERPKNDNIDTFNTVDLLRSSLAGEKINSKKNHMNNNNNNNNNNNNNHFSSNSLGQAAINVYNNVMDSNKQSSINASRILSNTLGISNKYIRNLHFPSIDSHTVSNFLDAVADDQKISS
UniProt Q8IJW6: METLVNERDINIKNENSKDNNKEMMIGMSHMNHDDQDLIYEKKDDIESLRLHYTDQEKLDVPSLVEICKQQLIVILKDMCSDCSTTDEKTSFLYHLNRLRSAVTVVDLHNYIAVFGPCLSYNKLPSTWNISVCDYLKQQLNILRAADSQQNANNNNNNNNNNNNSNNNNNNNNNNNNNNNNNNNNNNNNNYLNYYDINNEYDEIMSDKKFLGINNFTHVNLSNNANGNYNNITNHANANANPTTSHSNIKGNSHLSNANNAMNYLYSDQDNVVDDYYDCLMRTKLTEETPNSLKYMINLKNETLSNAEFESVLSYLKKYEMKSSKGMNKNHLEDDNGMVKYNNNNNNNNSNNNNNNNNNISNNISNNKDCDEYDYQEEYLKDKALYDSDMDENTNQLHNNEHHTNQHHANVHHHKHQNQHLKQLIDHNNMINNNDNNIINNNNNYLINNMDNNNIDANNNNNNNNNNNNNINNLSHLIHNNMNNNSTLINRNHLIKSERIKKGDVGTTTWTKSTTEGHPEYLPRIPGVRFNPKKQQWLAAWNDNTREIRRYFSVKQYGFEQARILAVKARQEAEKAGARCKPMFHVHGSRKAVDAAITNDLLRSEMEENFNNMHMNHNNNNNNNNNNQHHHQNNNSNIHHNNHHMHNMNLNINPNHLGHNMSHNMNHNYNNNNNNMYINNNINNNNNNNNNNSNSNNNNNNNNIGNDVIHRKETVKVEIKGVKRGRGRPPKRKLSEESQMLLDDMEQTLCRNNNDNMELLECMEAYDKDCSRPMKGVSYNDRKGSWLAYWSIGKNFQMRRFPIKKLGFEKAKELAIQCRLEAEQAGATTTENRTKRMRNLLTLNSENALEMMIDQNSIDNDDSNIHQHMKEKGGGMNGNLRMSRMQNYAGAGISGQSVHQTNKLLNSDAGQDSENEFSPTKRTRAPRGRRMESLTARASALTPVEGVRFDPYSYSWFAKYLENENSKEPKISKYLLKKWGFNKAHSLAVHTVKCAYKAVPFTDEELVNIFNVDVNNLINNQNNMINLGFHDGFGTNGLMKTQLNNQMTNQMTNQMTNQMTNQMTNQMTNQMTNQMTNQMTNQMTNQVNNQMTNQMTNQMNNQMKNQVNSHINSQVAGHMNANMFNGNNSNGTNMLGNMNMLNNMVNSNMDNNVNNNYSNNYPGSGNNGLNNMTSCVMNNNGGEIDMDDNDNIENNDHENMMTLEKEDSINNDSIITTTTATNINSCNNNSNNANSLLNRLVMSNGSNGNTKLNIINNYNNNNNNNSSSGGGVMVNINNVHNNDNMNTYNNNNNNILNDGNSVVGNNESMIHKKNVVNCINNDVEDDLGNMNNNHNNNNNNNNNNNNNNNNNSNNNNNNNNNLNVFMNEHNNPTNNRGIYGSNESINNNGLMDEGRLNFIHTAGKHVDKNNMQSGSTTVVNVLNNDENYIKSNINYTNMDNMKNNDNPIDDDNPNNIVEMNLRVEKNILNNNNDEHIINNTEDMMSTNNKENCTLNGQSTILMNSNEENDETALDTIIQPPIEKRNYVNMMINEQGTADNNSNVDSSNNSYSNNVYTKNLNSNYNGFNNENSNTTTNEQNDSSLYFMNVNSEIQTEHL

Experiments:
[1] = molecular target: PfMORC^GFP (Plasmodium falciparum microrchidia protein MORC, GFP-tagged) (Plasmodium falciparum (3D7 background)) (UniProt Q8IKF6); experiment: affinity purification with mass spectrometry; PfMORC^GFP captured from trophozoite (32 hpi) lysate in modified RIPA buffer (50 mM Tris pH 7.5, 150 mM NaCl, 0.5% sodium deoxycholate, 1% Nonidet P-40) on anti-GFP-Trap-A beads overnight; eluate resolved by SDS-PAGE, label-free LC-MS/MS, three biological replicates; wild-type 3D7 as negative control; cutoff fold change 1.5x GFP/3D7
[2] = molecular target: PfMORC^GFP (Plasmodium falciparum microrchidia protein MORC, GFP-tagged) (Plasmodium falciparum (3D7 background)) (UniProt Q8IKF6); experiment: as above; remark: listed apart in the source

Row | Molecule | binding [1] | binding [2]
1 | AP2 domain transcription factor AP2-G5 (from UniProt Q8IHX2 1-2653) | binds | 
2 | SNF2 chromatin-remodeling ATPase ISWI (from UniProt C6KT82 1-2719) | binds | 
3 | SNF2 helicase, putative or Chromodomain-helicase-DNA-binding protein 1 homolog, CHD1 (from UniProt Q8IJG6 1-3328) | binds | 
4 | AP2 domain transcription factor PF3D7_1107800 (from UniProt Q8IIS4 1-1828) | binds | 
5 | AP2 domain transcription factor PF3D7_1239200 (from UniProt Q8I531 1-2577) | binds | 
6 | AP2 domain transcription factor AP2-I (from UniProt Q8IJW6 1-1597) | binds | 
7 | AP2 domain transcription factor (ApiAP2) PF3D7_0420300 (from UniProt Q8I1N6) | binds | 
8 | AP2 domain transcription factor PF3D7_0613800 (from UniProt C6KSY0 1-4109) | binds | 
9 | EELM2 domain-containing protein PfEELM2 (protein, UniProt Q8I3R2 1-668) MNDYNDKEVYISEEEEEEEQEQEQEQEHEQEQEEEQEEDYEQEQEEEQEEEQVHGIEKNNNEEKSDKRNGHYLEGNHDHDVEELHDDDDDVNHTYVYDNEKYVHKVEDNHLTDNDMIEEDEENDQKRDEDLNEEEEYEHDSNHNNIDIDESNKEESEAEQNLKKEDYDNVDEDKKDNLQKNVAYANTIIKGGRNLRNLNKSSTSFDKTKKEQNNNMNGGGTNFIKTLSDENNLQNNVPHGRRKRKVSKDLNLNNEYVYGTNLNFKHARNVNDDIDEHEESENNHDQNNNEEINEHNQNDDNPIHNDNTNANNDDDDDNNIINNNENVVKTNEKILNGKQTNLRGSHLKLKTNRTKKNKKLSNKLNRNIAKNVNKNNNGRYGNVGRAQASTTQGNEKKVHGTNDNAEYTTHNRGRNSTTTNFTNRHSRVTFNNNNEGTYYAGHNNNTSTSHGNRHNDPHEEAEPKKGKKKRVTEEGSKESGKINVGDSYQVSNLPNFFLCRSELMYKNYDTQENTNDQMCLSCSGLPCHCKVGEATLVYSPIMLERVRERCLKNRGYHKCVKNEIELSAYVQECAKSWKSNIDEWVPFSPEYAYKLLHYANYDPHKAISIMKSSEFSFRKIMDPPTRKYQNKWKPKDKREHISKNPFPSPLTIRTYLSKRHHNSGYHLR |  | binds
10 | DNA helicase 60, DH60 (protein, UniProt Q8I5E7 1-742) MRRNLLKLTSINCKKNDYVSLSNNFFLIKNRSYKYITVRNKIGRNVFNEKDNCAILNRGQTHVVGIKKNICTENKVKQQDGEFYMNQRVPDDMDNDMDNNVDNDMDNNVDNHVDNHVDNHVDNHVDNHMDNHINNHTHKNVHDDTSYDNNSFDRYQRKRDEIGENGFVQNRRYENYEKRKQSKTNYSYDNDYNQGSRNKRNMSYPDRYEELGSHLKDIEWDNVKYKMERQNLYNNNYNKCNDQNNNQNSNDNLNNEQTNCLSKEDIQNELKKNNIYINKDGIIHNIINKFSDVCFHESILNYLNNKFSEPTAIQKITWPIALSGKDLIGVAETGSGKTLAFVLPCFMHILKHKEIIQNNNNNKQTNQNNNLQQEQEGKTNNHHIINNYNENNDNNENNHNNNNNNNNNNNNSYDYDYDINSSERASDTYGLILLPTRELCLQVLDEIKSFEKNLPIKSVAVYGGVPKYYQINNLKKGADIIVATPGRLLDFLENGNINLLKCIYVVIDEADRLLDMGFEKQLRKIMTQVNKNKQLLFLTATWPEQVRKLAYDFCSYDPVKIQIGKNELTANKNIEQNVIISSSIDMKKKLLDWLKENYENNKILIFCDTKRNCDNLCKELRYHQYNALSIHGDKQQRERDRILNNYKTDRCNILVATDVASRGLDIKNISVVINYDIPNTIEDYIHRIGRTGRAGKKGKSILFFSYDYYMPQKLKFAKELIKLLNKTNQTVPPQLKEIAYSR |  | binds
11 | AP2 domain transcription factor AP2-O5 (protein, UniProt Q8IKY0 1-715) MINYKDNKNSIEDNKENDSHLVKNTSYEKASEIVESDMYESNEDSNTKNKGVWYNARTKCWLACVKGSGRHLRVFSVKKYGYKKAKMLAIECKNSVFYNEQNEENNNDIHMKSNTSNNNNNNNMNSSSNSSTGNDNGYKLNNKKGNSEYNYNNMKEMNNKTNVNNYDDDIKDIDYKKRRNKLNEENEEVDIYNGRKNTDNGNINSSKNNAVILKKEKLKTNGNIINDITNTGRRYNTRRGSTLSSHEINKNERNNKNENNNIYDRYNYKNYAYNDQTKSNNNNNNDNNNNNNNNEDDNVHNEKIAIAHKNNHVQNNNFYNNNNNNNNNNNNNNNNNNVLNTIHNNVYNNLYHNDPNYDDRDNDVNQDHYNEHNNNNNNNYFYNTYDNHTYNTRNTTNISNYNNYENKKMNSKTLLQGQNKNISTTYGAPNKRYIEHLEDVCEYDNGNKKKKRKEQYAYLIRNDDESSNMNNNNNMKNFNNTNINAYQQNNYNNNYCTNYTTSYQRNVHSSNYNNTGYNNNNNNNNFNNNNNFNNNNNFNNNNNFNNNNNFNNNLAFLNSHCILTDKDFQIDSPDQTFDDYYYMKAHGYDDSEYSTRGKNKYNENEYNFIFSNEYYSDSCQPNIDEYKTNFIDLTREALSLILQDLKNNVIPKIPVGIEKRERYKNSLRLCLKSARNTQHMNELEPYLELFSECIKNSKLPSHMSLKDQLFYLDKL |  | binds
12 | ATP-dependent RNA helicase DBP5 (protein, UniProt Q8IKP1 1-741) METQEAPNIETKDEKQNGDADIIVTNKDEQSSKKKEENSNDDNKPGDVKEPADDNKPSDKKQPDDDNKYSDKKQPDDDNKSSDKKQPADDNKDNAGSDNVMNMFLNYLQKNKDDPAILQTMMSMMSGQNKNNLSASDLLSFTNSLNKKGEEKGEKNKEEEKKENEMPSEDLKNPSELITKEEKNEDNISTSDTQNVSNNIITKSESDTKQNNDSSSNNNNNNNYSVSEKVSGEENTNNNNNEEVVKKKHSVLVEDNDDYEIEETVEPKEPVEEEAISIIENININNKEKEKKGNDLFSPTSSSIENNNNDNNKESSDFKLYHSKNTWEELKIDNELIQILTYLKFLGPSKIQAYALPIILSSNKNLIAQSQNGSGKTLTFVIAMLCKINRTLSSLQAVCICPTRELSQQNYDVVCNFTKYLNVKVFLAVPLCERYNKSGGYQIYVGTPGKTLDFLKRKFIDTKNIKLFVLDEADDLIDIKNNMSSQVETIKRFLPRSCQILLFSATYNDSVRKFADQFAPKATKISVRQEDLTLKCVKQYYLITENDEQKYYYLSELYCSMTISQCVIFVNSKKSAYNLYNFMTENSHNVTLICADSIISRFTKNQIQKANVLGMDPKTRDTLMADFKKGISKVLICTDLLSRGIDVPSISLVINFDLPYIYQGRIGDTLNNTSNQRVNMETYIHRIGRTGRFGTKGMAINFISKNQMSHIKQIEEYYKCSIADLEFDSELMITSLTKLKN |  | binds
